PubChem BioAssay AID743121 | NCATS, 2013

Aim: 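Genes whose silencing strengthens cell killing by camptothecin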 (primary screen)
Cell system: MDA-MB-231 cells, a human breast cancer line
Knock-down reagent: single siRNA against human genes, 20 nM siRNA (0.8 pmol per well)
Time to read-out: 120 h (drug added 48 h after transfection, read 72 h later)
Treatment: camptothecin 20 nM (about EC30) for 72 h; vehicle 0.1% DMSO in parallel plates
Measurement: 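Cell viability by ATP luminescence (CellTiter-Glo) as % of non-targeting siRNA wells, and the log2 ratio of viability without drug over viability with camptothecin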
Direction: log2 vehicle/camptothecin viability: higher = stronger sensitisation to camptothecin; viability with camptothecin: higher = more viable cells
Units: viability with camptothecin in % of control
Hit rule: 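Each gene scored by redundant siRNA activity (RSA) over its individual siRNA ratios; a gene is called active at p < 0.001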
This is one part, drawn at random, of about 26,000 reagents. 167 of them (0.63%) count as active. 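Calls are per gene from RSA p-values that are not deposited; an individual active-marked siRNA can sensitise only weakly.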 Unmarked entries are inactive. The numbers tell different reagents against one gene apart. Not all columns of the deposit are shown. Reagent sequences are not shown.

MORC1 (GeneID 27136) #1 — log2 vehicle/camptothecin viability: -0.123; viability with camptothecin: 134
MORC1 (GeneID 27136) #2 — log2 vehicle/camptothecin viability: -0.133; viability with camptothecin: 82.1
MORC1 (GeneID 27136) #3 — log2 vehicle/camptothecin viability: 0.0107; viability with camptothecin: 81.9
EARS2 (GeneID 124454) #1 — log2 vehicle/camptothecin viability: -0.449; viability with camptothecin: 98
EARS2 (GeneID 124454) #2 — log2 vehicle/camptothecin viability: -0.0347; viability with camptothecin: 48
EARS2 (GeneID 124454) #3 — log2 vehicle/camptothecin viability: 0.347; viability with camptothecin: 45.4
EARS2 (GeneID 124454) #4 — log2 vehicle/camptothecin viability: -0.241; viability with camptothecin: 68
TXNDC15 (GeneID 79770) #1 — log2 vehicle/camptothecin viability: -0.255; viability with camptothecin: 103
TXNDC15 (GeneID 79770) #2 — log2 vehicle/camptothecin viability: -0.256; viability with camptothecin: 70.3
TXNDC15 (GeneID 79770) #3 — log2 vehicle/camptothecin viability: -0.33; viability with camptothecin: 99.3
TXNDC15 (GeneID 79770) #4 — log2 vehicle/camptothecin viability: -0.0285; viability with camptothecin: 109
TCF12 (GeneID 6938) #1 — log2 vehicle/camptothecin viability: -0.0278; viability with camptothecin: 97.5
TCF12 (GeneID 6938) #2 — log2 vehicle/camptothecin viability: 0.35; viability with camptothecin: 53
TCF12 (GeneID 6938) #3 — log2 vehicle/camptothecin viability: 0.172; viability with camptothecin: 84.7
TCF12 (GeneID 6938) #4 — log2 vehicle/camptothecin viability: 0.162; viability with camptothecin: 88.9

4 of these entries, set out differently.
{"Gene": "EARS2 (GeneID 124454)", "siRNA no.": 4, "log2 vehicle/camptothecin viability": -0.241, "viability with camptothecin": 68}
{"Gene": "TXNDC15 (GeneID 79770)", "siRNA no.": 1, "log2 vehicle/camptothecin viability": -0.255, "viability with camptothecin": 103}
{"Gene": "TXNDC15 (GeneID 79770)", "siRNA no.": 2, "log2 vehicle/camptothecin viability": -0.256, "viability with camptothecin": 70.3}
{"Gene": "TXNDC15 (GeneID 79770)", "siRNA no.": 3, "log2 vehicle/camptothecin viability": -0.33, "viability with camptothecin": 99.3}

Continued:
SLC25A20 (GeneID 788) #1 — log2 vehicle/camptothecin viability: -0.0256; viability with camptothecin: 81.3
SLC25A20 (GeneID 788) #2 — log2 vehicle/camptothecin viability: -0.434; viability with camptothecin: 88.3
SLC25A20 (GeneID 788) #3 — log2 vehicle/camptothecin viability: 0.0727; viability with camptothecin: 37.8
RIOX2 (GeneID 84864) #1 — log2 vehicle/camptothecin viability: -0.558; viability with camptothecin: 47.8
RIOX2 (GeneID 84864) #2 — log2 vehicle/camptothecin viability: -0.239; viability with camptothecin: 73.8
RIOX2 (GeneID 84864) #3 — log2 vehicle/camptothecin viability: -0.134; viability with camptothecin: 85.5
RIOX2 (GeneID 84864) #4 — log2 vehicle/camptothecin viability: 0.0831; viability with camptothecin: 90.1
MAP4K1 (GeneID 11184) #1 — log2 vehicle/camptothecin viability: -0.099; viability with camptothecin: 103
MAP4K1 (GeneID 11184) #2 — log2 vehicle/camptothecin viability: -0.445; viability with camptothecin: 73.8
MAP4K1 (GeneID 11184) #3 — log2 vehicle/camptothecin viability: -0.0678; viability with camptothecin: 61.8
MAP4K1 (GeneID 11184) #4 — log2 vehicle/camptothecin viability: -0.521; viability with camptothecin: 89.8
BRD8 (GeneID 10902) #1 — log2 vehicle/camptothecin viability: -0.377; viability with camptothecin: 74.5
BRD8 (GeneID 10902) #2 — log2 vehicle/camptothecin viability: -0.101; viability with camptothecin: 62.6
BRD8 (GeneID 10902) #3 — log2 vehicle/camptothecin viability: 0.271; viability with camptothecin: 79
PPP2R2A (GeneID 5520) #1 — log2 vehicle/camptothecin viability: -0.233; viability with camptothecin: 75.3
PPP2R2A (GeneID 5520) #2 — log2 vehicle/camptothecin viability: -0.391; viability with camptothecin: 58.7
PPP2R2A (GeneID 5520) #3 — log2 vehicle/camptothecin viability: 0.847; viability with camptothecin: 59.7
PPP2R2A (GeneID 5520) #4 — log2 vehicle/camptothecin viability: 0.392; viability with camptothecin: 75.4
NRL (GeneID 4901) #1 — log2 vehicle/camptothecin viability: -0.204; viability with camptothecin: 125
NRL (GeneID 4901) #2 — log2 vehicle/camptothecin viability: -0.0966; viability with camptothecin: 93.4
NRL (GeneID 4901) #3 — log2 vehicle/camptothecin viability: -0.14; viability with camptothecin: 109
